For at least one compound, name, drawing or mass did not settle the structure.
Target: T1, IL-8 (Homo sapiens, UniProt P10145)
T1 sequence (P10145 28-99): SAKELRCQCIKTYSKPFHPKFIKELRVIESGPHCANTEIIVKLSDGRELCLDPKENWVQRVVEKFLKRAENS
Experiment: Inhibition of 125I-IL-8 binding to neutrophil membranes by CXCR1 N-terminal peptides

“Ac-TWFEDEFANATGHPPVEKDYSP-NH2 [His-peptide]” showed a Ki (in the absence of Zn(II)) of 141 µM and a Ki (in the presence of Zn(II) (100 μM ZnCl2)) of 1.12 µM.
